PubChem BioAssay AID504791, Drosophila RNAi Screening Center – 2011

- Assay: 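Genes of the fly required for silencing by miRNA, siRNA or endo-siRNA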 (primary screen)
- Cells: Drosophila S2-derived reporter cells
- Reagent: long dsRNA against Drosophila genes, about 150-250 ng dsRNA per well (siRNA assay); about 80-120 ng (miRNA assay)
- Duration: about 5 days (siRNA assay); about 4 days (miRNA assay)
- Challenge: copper sulfate induction of reporters: 25 µM (siRNA assay); 200 mM stated (miRNA assay), 1-2 days before reading
- Detection: 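Per-well ratio of Renilla over firefly light, expressed relative to that plate's average ratio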
- Reading the numbers: siRNA reporter hit score: higher = 3 marks a strong hit with raised ratio; -3 a strong hit with lowered ratio
- Active means: 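a well was a first-pass pick when its plate-scaled ratio rose above 1.5 (siRNA assay) or 1.6 (miRNA assay), or dropped below 0.6; a gene counted only if two separate dsRNAs agreed on retest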
In all, the deposit lists about 23,000 reagents; this is a random part of those with a known target gene and a result. In the full data, 199 (0.86%) were called active. 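Plate-scaled ratios behind the calls are not deposited; printed light signals are raw; many rows marked increased or decreased are still called inactive.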 A number with no mark means an inactive call. Reagents against one gene are numbered here. A plus sign joins genes that one reagent is predicted to hit. Reagent sequences are not shown.

no.	gene	reagent no.	siRNA reporter hit score	stable siRNA reporter change	miRNA reporter change	stable assay Renilla, run 1 (luminescence)	stable assay firefly, run 1 (luminescence)
1	CG31082 (retired record)	1				3635	3.47e5
2	CG31126	1				6944	3.77e5
3	CG14646	1				3864	3.12e5
4	CG14646	2				9201	5.49e5
5	CG18368	1				6736	3.67e5
6	CG16978	1				6747	3.42e5
7	Alg9	1				9809	4.18e5
8	CG9514	1				4987	2.94e5
9	CG9514	2				5231	3.30e5
10	Sodh2	1				6587	3.92e5
11	CG4598	1				6886	3.82e5
12	mRpS30	1				6927	4.40e5
13	Est-P	1				6232	3.78e5
14	CG10301	1				6426	2.78e5
15	CG17362	1				7234	4.41e5
16	CG13713	1				7376	5.47e5
17	CG5245	1				6124	2.70e5
18	CG18480	1				7707	1.79e6
19	Cda5	1				4447	3.36e5
20	Cda5	2				8635	4.50e5
21	Cda5	3				8019	3.84e5
22	Cda5	4				9598	4.57e5
23	CG34450	1				7971	5.48e5
24	RpL7-like + CG34164	1				5223	3.94e5
25	RpL7-like + CG34164	2				7942	4.79e5
26	CG31161	1			reporter ratio raised past the hit cutoff	8585	3.50e5
27	CG1690	1				5559	3.86e5
28	Tsp42Ep	1				28199	1.94e6
29	CG11601	1				7662	3.92e5
30	Lrrk	1		reporter ratio raised past the hit cutoff		2899	86153
31	Lrrk	2				8790	7.27e5
32	CG13144	1				7175	2.76e5
33	REPTOR	1				7773	3.41e5
34	REPTOR	2			reporter ratio lowered past the hit cutoff		
35	Cht7 + tRNA:Cys-GCA-1-4 + tRNA:Lys-CTT-1-13	1				4647	3.44e5
36	CG15322	1				4119	2.47e5
37	CG15322	2				4655	3.15e5
38	Kdm4B	1				8014	4.52e5
39	CG6340	1				5627	4.07e5
40	CG3918	1				7026	3.33e5
41	CG3918	2				5591	3.81e5
42	Cad96Cb	1				6527	3.06e5
43	Cad96Cb	2				7000	3.64e5
44	Or56a	1				6427	3.06e5
45	TwdlX	1				4271	3.73e5
46	CG34337	1				4910	2.66e5
47	link	1			reporter ratio lowered past the hit cutoff	4808	3.23e5
48	Best2	1				5738	3.44e5
49	BckdhA	1				6022	3.54e5
50	Sp212	1				4743	3.98e5
51	CG6664	1				7292	2.76e5
52	cpa	1				1.16e5	5.15e5
53	CG32147	1				6347	4.42e5
54	Klp67A	1				7610	5.73e5
55	Past1	1	3			7095	3.74e5
56	CG31538	1				4523	3.42e5
57	nmd	1				26698	1.28e6
58	Mob2	1				4176	3.14e5
59	Mob2	2				3412	2.83e5
60	Mob2	3			reporter ratio lowered past the hit cutoff	6895	3.58e5
61	Mob2	4				3620	3.14e5
62	CG34176	1				7334	4.10e5
63	Obp57e	1				8874	6.18e5
64	wtrw	1				9329	4.72e5
65	wtrw	2				4264	4.52e5
66	Bbd	1				7795	4.15e5
67	CG15873	1				6771	4.41e5
68	Rpn2	1		reporter ratio raised past the hit cutoff (active)		5462	1.90e5
69	CG7379	1				4276	4.51e5
70	CG3527	1				4831	2.88e5
71	CG17325 + CG42305	1				6464	4.01e5
72	Hsp60A	1				7819	7.07e5
73	CG2656	1				7211	3.50e5
74	CG3078	1				5952	2.51e5
75	CG34024 (retired record)	1				7287	4.58e5
76	CG17059	1				6574	3.36e5
77	Orc1	1				4243	4.70e5
78	CG13877 + pyx	1				6103	3.66e5
79	CG10959	1				8423	7.74e5
80	Oscillin	1				23257	3.25e5
81	CG12865 (retired record)	1			reporter ratio lowered past the hit cutoff	5883	3.20e5
82	CG16935	1				5123	2.76e5
83	lili	1				8071	2.96e5

Reformatted: entries from further up
{"gene":"CG17325 + CG42305","reagent no.":1,"stable assay Renilla, run 1 (luminescence)":6464,"stable assay firefly, run 1 (luminescence)":4.01e5}
{"gene":"Hsp60A","reagent no.":1,"stable assay Renilla, run 1 (luminescence)":7819,"stable assay firefly, run 1 (luminescence)":7.07e5}
{"gene":"CG2656","reagent no.":1,"stable assay Renilla, run 1 (luminescence)":7211,"stable assay firefly, run 1 (luminescence)":3.50e5}
{"gene":"CG3078","reagent no.":1,"stable assay Renilla, run 1 (luminescence)":5952,"stable assay firefly, run 1 (luminescence)":2.51e5}
{"gene":"CG34024 (retired record)","reagent no.":1,"stable assay Renilla, run 1 (luminescence)":7287,"stable assay firefly, run 1 (luminescence)":4.58e5}
{"gene":"CG17059","reagent no.":1,"stable assay Renilla, run 1 (luminescence)":6574,"stable assay firefly, run 1 (luminescence)":3.36e5}
{"gene":"Orc1","reagent no.":1,"stable assay Renilla, run 1 (luminescence)":4243,"stable assay firefly, run 1 (luminescence)":4.70e5}
{"gene":"CG13877 + pyx","reagent no.":1,"stable assay Renilla, run 1 (luminescence)":6103,"stable assay firefly, run 1 (luminescence)":3.66e5}
{"gene":"CG10959","reagent no.":1,"stable assay Renilla, run 1 (luminescence)":8423,"stable assay firefly, run 1 (luminescence)":7.74e5}
